PubChem BioAssay AID1259308 – NCATS – 2017
Shown is a random part of about 59,000 reagents tested. In the full data, about 1,510 (2.6%) were called active. 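Calls use total luciferase alone and ignore viability, so some active siRNAs may act by altering cell number.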 The numbers tell different reagents against one gene apart. Not all columns of the deposit are shown. Reagent sequences are not shown.

Test: 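Knock-downs that increase output of a recombinant reporter protein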 (primary screen)
Cell system: human HEK293 embryonic kidney cells stably expressing firefly luciferase (HEK-CMV-Luc2-Hygro)
Reagents: single siRNA against human genes, 0.8 pmol siRNA per well
Timing: 72 h
Measured: 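Reporter luminescence and viable-cell signal on separate replicate plates, given as percent of non-targeting control and median/MAD z-scores, plus per-cell luciferase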
Direction: total luciferase, z-score: higher = more reporter protein produced
Call rule: 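Active when the median/MAD z-score for overall luciferase is greater than 3; a gene was taken forward for validation with new siRNAs if at least two of its three siRNAs passed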
Meaning of the calls: active = raised luciferase; inactive = no rise

total luciferase, z-score, by target gene and reagent
GSTA1 (GeneID 2938): #1 -0.867 inactive; #2 -0.162 inactive; #3 -0.204 inactive
HACL2 (GeneID 10994): #1 0.814 inactive; #2 4.78 active; #3 0.22 inactive
CXCR5 (GeneID 643): #1 0.97 inactive; #2 3.69 active; #3 -1.26 inactive
OR4K14 (GeneID 122740): #1 -0.265 inactive; #2 0.579 inactive; #3 1.07 inactive
KLF9 (GeneID 687): #1 -1.6 inactive; #2 0.612 inactive; #3 0.777 inactive
UTS2 (GeneID 10911): #1 0.918 inactive; #2 -0.7 inactive; #3 0.443 inactive
LOC729369 (GeneID 729369): #1 -1.39 inactive; #2 -0.404 inactive; #3 -1.05 inactive
RARG (GeneID 5916): #1 5.41 active; #2 -1.31 inactive; #3 -1.52 inactive
SLC25A42 (GeneID 284439): #1 -0.242 inactive; #2 -0.398 inactive; #3 3.23 active
SDK2 (GeneID 54549): #1 0.776 inactive; #2 4.89 active; #3 -0.585 inactive
ITGA7 (GeneID 3679): #1 -0.167 inactive; #2 1.82 inactive; #3 -1.41 inactive
TRIM31 (GeneID 11074): #1 1.03 inactive; #2 -1.65 inactive; #3 3.58 active
PAFAH1B3 (GeneID 5050): #1 -0.841 inactive; #2 -0.694 inactive; #3 0.0274 inactive
HPS4 (GeneID 89781): #1 1.46 inactive; #2 1.09 inactive; #3 -0.178 inactive
TSSK3 (GeneID 81629): #1 0.61 inactive; #2 0.388 inactive; #3 0.195 inactive
TAB1 (GeneID 10454): #1 -0.106 inactive; #2 0.5 inactive; #3 -1.26 inactive
CA11 (GeneID 770): #1 -0.684 inactive; #2 0.0618 inactive; #3 3.03 active
MIR22HG (GeneID 84981): #1 -0.164 inactive; #2 0.942 inactive; #3 0.232 inactive
CCT8L2 (GeneID 150160): #1 1.1 inactive; #2 0.858 inactive; #3 -0.208 inactive

6 of these entries in another layout:
target gene,siRNA no.,"total luciferase, z-score",Call
TSSK3 (GeneID 81629),2,0.388,inactive
TSSK3 (GeneID 81629),3,0.195,inactive
TAB1 (GeneID 10454),1,-0.106,inactive
TAB1 (GeneID 10454),2,0.5,inactive
TAB1 (GeneID 10454),3,-1.26,inactive
CA11 (GeneID 770),1,-0.684,inactive
